Earlier results in publication PMC4667193 (Scientific Reports, 2015).

Tested on: rat primary hippocampal cell culture
Settings: rat primary hippocampal cell cultures; cited from earlier work

CN1[C@@H]2CC[C@H]1C[C@@H](OC(=O)C(CO)c1ccccc1)C2 (stereo partly shown) [atropine]
effect on AEME-induced neurotoxicity: prevented AEME-induced neurotoxicity
